Source: patent US8486950B2, “Janus kinase inhibitor compounds and methods” (F. Hoffmann-La Roche AG, priority 2009, dated 2013)
Some entries share one result that the patent states for a list of compounds.

Biological target: T1, TYK2 kinase domain (Homo sapiens, UniProt P29597)
T1 construct: made in house; host or cells: SF9 insect cells (recombinant baculovirus)
T1 sequence (P29597 873-1187): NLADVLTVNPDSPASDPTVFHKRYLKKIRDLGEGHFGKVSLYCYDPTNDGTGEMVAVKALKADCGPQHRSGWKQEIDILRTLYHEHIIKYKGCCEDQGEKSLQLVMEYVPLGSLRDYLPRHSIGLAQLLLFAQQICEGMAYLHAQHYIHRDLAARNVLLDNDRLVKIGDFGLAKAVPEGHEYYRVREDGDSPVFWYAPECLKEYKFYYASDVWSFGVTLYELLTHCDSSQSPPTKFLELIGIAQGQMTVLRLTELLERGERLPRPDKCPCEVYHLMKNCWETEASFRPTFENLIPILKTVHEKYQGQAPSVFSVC
Assay: TYK2 inhibition assay (Caliper LabChip, isolated kinase domain)
Type: biochemical
Conditions: 25 uM ATP, values given as 'about'

| SMILES | Ki [µM] |
| --- | --- |
| CN1CCN(c2cnc(Nc3cc(NC(=O)c4c(Cl)cccc4Cl)ccn3)cn2)CC1 [Example 455, 2,6-dichloro-N-(2-(5-(4-methylpiperazin-1-yl)pyrazin-2-ylamino)pyridin-4-yl)benzamide] | < 3.5 |
| O=C(Nc1ccnc(Nc2cnc(N3CCOCC3)cn2)c1)c1c(Cl)cccc1Cl [Example 456, 2,6-dichloro-N-(2-(5-morpholinopyrazin-2-ylamino)pyridin-4-yl)benzamide] | < 3.5 |
| CN(C)c1cccc(Nc2cc(NC(=O)c3c(Cl)cccc3Cl)ccn2)n1 [Example 457, 2,6-dichloro-N-(2-(6-(dimethylamino)pyridin-2-ylamino)pyridin-4-yl)benzamide] | < 3.5 |
| O=C(Nc1ccnc(Nc2cccc(CN3CCOCC3)n2)c1)c1c(Cl)cccc1Cl [Example 458, 2,6-dichloro-N-(2-(6-(morpholinomethyl)pyridin-2-ylamino)pyridin-4-yl)benzamide] | < 3.5 |
| CN(C)c1ccnc(Nc2cc(NC(=O)c3c(Cl)cccc3Cl)ccn2)c1 [Example 459, 2,6-dichloro-N-(2-(4-(dimethylamino)pyridin-2-ylamino)pyridin-4-yl)benzamide] | < 3.5 |
| CC(=O)Nc1ccc(Nc2cc(NC(=O)c3c(Cl)cccc3Cl)ccn2)nc1C [Example 460, N-(2-(5-acetamido-6-methylpyridin-2-ylamino)pyridin-4-yl)-2,6-dichlorobenzamide] | < 3.5 |
| O=C(Nc1ccnc(Nc2cc(N3CCS(=O)(=O)CC3)ccn2)c1)c1c(Cl)cccc1Cl [Example 461, 2,6-dichloro-N-(2-(4-(S-dioxa-thiomorpholino)pyridin-2-ylamino)pyridin-4-yl)benzamide] | < 3.5 |
| CN(C)Cc1cccc(Nc2cc(NC(=O)c3c(Cl)cccc3Cl)ccn2)n1 [Example 462, 2,6-dichloro-N-(2-(6-((dimethylamino)methyl)-pyridin-2-ylamino)pyridin-4-yl)benzamide] | < 3.5 |
| CN(C)c1cnc(Nc2cc(NC(=O)c3c(Cl)cccc3Cl)ccn2)cn1 [Example 463, 2,6-dichloro-N-(2-(5-(dimethylamino)pyrazin-2-ylamino)pyridin-4-yl)benzamide] | < 3.5 |
| O=C(Nc1ccnc(Nc2cc(CN3CCOCC3)ccn2)c1)c1c(Cl)cccc1Cl [Example 464, 2,6-dichloro-N-(2-(4-(morpholinomethyl)-pyridin-2-ylamino)pyridin-4-yl)benzamide] | < 3.5 |
| CN1CCN(Cc2cccc(Nc3cc(NC(=O)c4c(Cl)cccc4Cl)ccn3)n2)CC1 [Example 465, 2,6-dichloro-N-(2-(6-((4-methylpiperazin-1-yl)methyl)pyridin-2-ylamino)pyridin-4-yl)benzamide] | < 3.5 |
| Cc1cncc(Nc2cc(NC(=O)c3c(Cl)cccc3Cl)ccn2)n1 [Example 466, 2,6-dichloro-N-(2-(6-methylpyrazin-2-ylamino)pyridin-4-yl)benzamide] | < 3.5 |
| Cc1cnc(Nc2cc(NC(=O)c3c(Cl)cccc3Cl)ccn2)cn1 [Example 467, 2,6-dichloro-N-(2-(5-methylpyrazin-2-ylamino)pyridin-4-yl)benzamide] | < 3.5 |
| O=C(Nc1ccnc(Nc2cc(CN3CCS(=O)(=O)CC3)ccn2)c1)c1c(Cl)cccc1Cl [Example 468, 2,6-dichloro-N-(2-(4-(S-dioxa-thiomorpholinomethyl)-pyridin-2-ylamino)pyridin-4-yl)benzamide] | < 3.5 |
| O=C(Nc1ccnc(Nc2ccc(CN3CCS(=O)(=O)CC3)cn2)c1)c1c(Cl)cccc1Cl [Example 469, 2,6-dichloro-N-(2-(5-(S-dioxa-thiomorpholinomethyl)-pyridin-2-ylamino)pyridin-4-yl)benzamide] | < 3.5 |
| CC(=O)N(C)c1ccc(Nc2cc(NC(=O)c3c(Cl)cccc3Cl)ccn2)nc1 [Example 470, 2,6-dichloro-N-(2-(5-(N-methylacetamido)pyridin-2-ylamino)pyridin-4-yl)benzamide] | < 3.5 |
| CS(=O)(=O)N1CCN(Cc2ccc(Nc3cc(NC(=O)c4c(Cl)cccc4Cl)ccn3)nc2)CC1 [Example 471, 2,6-dichloro-N-(2-(5-((4-(methylsulfonyl)piperazin-1-yl)methyl)pyridin-2-ylamino)pyridin-4-yl)benzamide] | < 3.5 |
| CS(=O)(=O)N1CCN(Cc2cccc(Nc3cc(NC(=O)c4c(Cl)cccc4Cl)ccn3)n2)CC1 [Example 472, 2,6-dichloro-N-(2-(6-((4-(methylsulfonyl)piperazin-1-yl)methyl)pyridin-2-ylamino)pyridin-4-yl)benzamide] | < 3.5 |
| CN(c1ccc(Nc2cc(NC(=O)c3c(Cl)cccc3Cl)ccn2)nc1)S(C)(=O)=O [Example 473, 2,6-dichloro-N-(2-(5-(N-methylmethylsulfonamido)-pyridin-2-ylamino)pyridin-4-yl)benzamide] | < 3.5 |

| SMILES | Ki [µM] |
| --- | --- |
| CN(C)C(=O)c1cncc(Nc2cc(NC(=O)c3c(Cl)cccc3Cl)ccn2)n1 [Example 474, 6-(4-(2,6-dichlorobenzamido)-pyridin-2-ylamino)-N,N-dimethylpyrazine-2-carboxamide] | < 3.5 |
| O=C(Nc1ccnc(Nc2cncc(C(=O)N3CCOCC3)n2)c1)c1c(Cl)cccc1Cl [Example 475, 2,6-dichloro-N-(2-(6-(morpholin-4-carbonyl)pyrazin-2-ylamino)pyridin-4-yl)benzamide] | < 3.5 |
| O=C(Nc1ccnc(Nc2cncc(CO)n2)c1)c1c(Cl)cccc1Cl [Example 476, 2,6-dichloro-N-(2-(6-(hydroxymethyl)pyrazin-2-ylamino)pyridin-4-yl)benzamide] | < 3.5 |
| CS(=O)(=O)N1CCN(Cc2ccnc(Nc3cc(NC(=O)c4c(Cl)cccc4Cl)ccn3)c2)CC1 [Example 477, 2,6-dichloro-N-(2-(4-((4-(methylsulfonyl)piperazin-1-yl)methyl)pyridin-2-ylamino)pyridin-4-yl)benzamide] | < 3.5 |
| O=C(Nc1ccnc(Nc2ccc(N3CCS(=O)(=O)CC3)cn2)c1)c1c(Cl)cccc1Cl [Example 478, 2,6-dichloro-N-(2-(5-(S-dioxa-thiomorpholino)pyridin-2-ylamino)pyridin-4-yl)benzamide] | < 3.5 |
| CCN(CC)c1nc(C)cc(Nc2cc(NC(=O)c3c(Cl)cccc3Cl)ccn2)n1 [Example 479, 2,6-dichloro-N-(2-(2-(diethylamino)-6-methylpyrimidin-4-ylamino)pyridin-4-yl)benzamide] | < 3.5 |
| Cc1cc(Nc2cc(NC(=O)c3c(Cl)cccc3Cl)ccn2)nc(N2CCCC2)n1 [Example 480, 2,6-dichloro-N-(2-(6-methyl-2-(pyrrolidin-1-yl)pyrimidin-4-ylamino)pyridin-4-yl)benzamide] | < 3.5 |
| Cc1cc(Nc2cc(NC(=O)c3c(Cl)cccc3Cl)ccn2)nc(N2CCS(=O)(=O)CC2)n1 [Example 481, 2,6-dichloro-N-(2-(6-methyl-2-(S-dioxa-thiomorpholino)pyrimidin-4-ylamino)pyridin-4-yl)benzamid] | < 3.5 |
| CC(=O)N1CCN(c2nc(C)cc(Nc3cc(NC(=O)c4c(Cl)cccc4Cl)ccn3)n2)CC1 [Example 482, N-(2-(2-(4-acetylpiperazin-1-yl)-6-methylpyrimidin-4-ylamino)pyridin-4-yl)-2,6-dichlorobenzamide] | < 3.5 |
| Cc1cc(Nc2cc(NC(=O)c3c(Cl)cccc3Cl)ccn2)nc(N2CCN(S(C)(=O)=O)CC2)n1 [Example 483, 2,6-dichloro-N-(2-(6-methyl-2-(4-(methylsulfonyl)piperazin-1-yl)pyrimidin-4-ylamino)pyridin-4-yl)benzamide] | < 3.5 |
| CN(C)Cc1nccc(Nc2cc(NC(=O)c3c(Cl)cccc3Cl)ccn2)n1 [Example 484, 2,6-dichloro-N-(2-(2-((dimethylamino)methyl)-pyrimidin-4-ylamino)pyridin-4-yl)benzamide] | < 3.5 |
| CN1CCN(Cc2nccc(Nc3cc(NC(=O)c4c(Cl)cccc4Cl)ccn3)n2)CC1 [Example 485, 2,6-dichloro-N-(2-(2-((4-methylpiperazin-1-yl)methyl)pyrimidin-4-ylamino)pyridin-4-yl)benzamide] | < 3.5 |
| O=C(Nc1ccnc(Nc2ccnc(CN3CCOCC3)n2)c1)c1c(Cl)cccc1Cl [Example 486, 2,6-dichloro-N-(2-(2-(morpholinomethyl)-pyrimidin-4-ylamino)pyridin-4-yl)benzamide] | < 3.5 |
| Cc1cc(Nc2cc(NC(=O)c3c(Cl)cccc3Cl)ccn2)nc(N2CCC(O)CC2)n1 [Example 487, 2,6-dichloro-N-(2-(2-(4-hydroxypiperidin-1-yl)-6-methylpyrimidin-4-ylamino)pyridin-4-yl)benzamide] | < 3.5 |
| O=C(Nc1ccnc(Nc2ccnc(CN3CCS(=O)(=O)CC3)n2)c1)c1c(Cl)cccc1Cl [Example 488, 2,6-dichloro-N-(2-(2-(S-dioxa-thiomorpholinomethyl)-pyrimidin-4-ylamino)pyridin-4-yl)benzamide] | < 3.5 |
| Cc1cc(Nc2cc(NC(=O)c3c(Cl)cccc3Cl)ccn2)nc(N2CCC2)n1 [Example 489, N-(2-(2-(azetidin-1-yl)-6-methylpyrimidin-4-ylamino)pyridin-4-yl)-2,6-dichlorobenzamide] | < 3.5 |
| Cc1cc(Nc2cc(NC(=O)c3c(Cl)cccc3Cl)ccn2)nc(N2CC[C@@H](O)C2)n1 [Example 490, (R)-2,6-dichloro-N-(2-(2-(3-hydroxypyrrolidin-1-yl)-6-methylpyrimidin-4-ylamino)pyridin-4-yl)benzamide] | < 3.5 |
| Cc1cc(Nc2cc(NC(=O)c3c(Cl)cccc3Cl)ccn2)nc(N2CC[C@H](O)C2)n1 [Example 491, (S)-2,6-dichloro-N-(2-(2-(3-hydroxypyrrolidin-1-yl)-6-methylpyrimidin-4-ylamino)pyridin-4-yl)benzamide] | < 3.5 |
